Drawing on patent publication US8957062B2, “Substituted cyclopropyl compounds, compositions containing such compounds and methods of treatment” (Merck Sharp & Dohme Corp., priority 2011, dated 2015), this text covers EC50 for one compound.

For the test, the target named is T1, human GPR119 (Homo sapiens, UniProt Q8TDV5).
T1 sequence (Q8TDV5 1-308 limits assumed): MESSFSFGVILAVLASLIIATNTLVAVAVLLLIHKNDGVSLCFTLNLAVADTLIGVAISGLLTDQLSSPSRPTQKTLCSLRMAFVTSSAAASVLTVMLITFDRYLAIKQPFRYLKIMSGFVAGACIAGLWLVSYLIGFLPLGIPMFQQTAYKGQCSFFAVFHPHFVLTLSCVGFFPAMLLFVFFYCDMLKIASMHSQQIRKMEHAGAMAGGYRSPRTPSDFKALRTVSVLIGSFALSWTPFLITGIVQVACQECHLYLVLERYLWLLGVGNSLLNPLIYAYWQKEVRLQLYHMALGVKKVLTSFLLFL
The experiment in a line: Measurement of GPR119 signaling (cAMP assay) in cells stably transfected with human GPR119. It is filed as cell-based. The settings on record: stated in the example text, cAMP stimulation. The method, then: Measurement of GPR119 Signaling (Cyclic AMP (cAMP) Assay)
The adenylate cyclase assay was constructed following the LANCE™ cAMP Kit (Perkin Elmer, AD0264) instructions.
The reaction was stopped by incubating with the supplied detection buffer containing the europium chelate of the Eu-SA/Biotin-cAMP tracer for 3 hours. The assay was performed in duplicate in a 384 well plate for duplicate plates and fluorescence was measured at 665 nm. Basal activity was determined using a DMSO control and maximum response was defined as cAMP stimulation produced by an internal agonist control. Standard cAMP concentrations were assayed concurrently for conversion of fluorescence signal to cAMP level. The data was analyzed using 4-parameter curve fit in Microsoft Excel.
Measurement of GPR119 Signaling (cAMP Homogenous Time Resolved Fluorescence (HTRF) Assay)
Chinese hamster ovary (CHO) cell lines stably transfected with the permissive guanine nucleotide binding protein alpha 15 (Gα15) and murine GPR119 were maintained in DMEM media containing FBS, penicillin-streptomycin, puromycin, and G418 (geneticin). […] Agonist activation of the GPR119 receptor was measured in receptor transfected cells described above, treated with compounds of this invention, using a commercial homogenous time resolved fluorescence (HTRF) kit for measurement of cAMP (CisBio, Bedford, Mass.). […]

pEC50: −log10 of the molar value.

As usually defined, the pEC50 is the negative decadic logarithm of the EC50, by convention in mol/L. Low values mean a high EC50, high ones a low EC50. In turn, `CC(C)(C)COC(=O)N1CCC([C@H]2C[C@H]2CCOc2ccc(S(C)(=O)=O)cn2)CC1` [Example 14, neopentyl 4-((1R,2S)-2-(2-(5-(methylsulfonyl)pyridin-2-yloxy)ethyl)cyclopropyl)piperidine-1-carboxylate] had a pEC50 of 8.70.
